{"source": "PubChem BioAssay AID1259405 (NCATS, 2018)", "assay": "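Silenced genes that increase secreted GFP made by CHO cells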 (primary screen)", "system": "Chinese hamster CHO-K1 ovary cells with stable secreted eGFP expression", "reagents": "single siRNA against mouse genes, 0.8 pmol siRNA per well (2 µl of 400 nM stock)", "duration": "3 days", "measured": "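Per-well intracellular GFP measured by laser scanning cytometry, plus viability from ATP luminescence, each relative to plate median of non-targeting control wells, in %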", "scale": "GFP, % of control: higher = more GFP per well, higher productivity; viability (ATP), % of control: higher = more viable cells (more ATP)", "call rule": "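Called active when intracellular GFP, relative to negative control, is at or above 120%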", "note": "Shown is an unselected part of about 50,000 reagents tested. In the full data, about 4,000 (8%) were called active. 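Mouse siRNA library applied to hamster cells; one well for each siRNA.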 Reagents against one gene are numbered here. Reagent sequences are not shown."}
{"target": "Mcoln2 (GeneID 68279)", "reagent no.": 1, "GFP, % of control": 105, "viability (ATP), % of control": 26, "activity call": "inactive"}
{"target": "Mcoln2 (GeneID 68279)", "reagent no.": 2, "GFP, % of control": 70.7, "viability (ATP), % of control": 46.2, "activity call": "inactive"}
{"target": "Mcoln2 (GeneID 68279)", "reagent no.": 3, "GFP, % of control": 58.5, "viability (ATP), % of control": 89.6, "activity call": "inactive"}
{"target": "Pdcd7 (GeneID 50996)", "reagent no.": 1, "GFP, % of control": 58.3, "viability (ATP), % of control": 14.7, "activity call": "inactive"}
{"target": "Pdcd7 (GeneID 50996)", "reagent no.": 2, "GFP, % of control": 97.9, "viability (ATP), % of control": 65.1, "activity call": "inactive"}
{"target": "Pdcd7 (GeneID 50996)", "reagent no.": 3, "GFP, % of control": 72.7, "viability (ATP), % of control": 59.1, "activity call": "inactive"}
{"target": "Gpx6 (GeneID 75512)", "reagent no.": 1, "GFP, % of control": 138, "viability (ATP), % of control": 110, "activity call": "active"}
{"target": "Gpx6 (GeneID 75512)", "reagent no.": 2, "GFP, % of control": 87.4, "viability (ATP), % of control": 84.5, "activity call": "inactive"}
{"target": "Gpx6 (GeneID 75512)", "reagent no.": 3, "GFP, % of control": 57, "viability (ATP), % of control": 66.3, "activity call": "inactive"}
{"target": "N4bp2 (GeneID 333789)", "reagent no.": 1, "GFP, % of control": 61.5, "viability (ATP), % of control": 60.2, "activity call": "inactive"}
{"target": "N4bp2 (GeneID 333789)", "reagent no.": 2, "GFP, % of control": 95.2, "viability (ATP), % of control": 85.6, "activity call": "inactive"}
{"target": "N4bp2 (GeneID 333789)", "reagent no.": 3, "GFP, % of control": 74.1, "viability (ATP), % of control": 55.4, "activity call": "inactive"}
{"target": "Krtap3-3 (GeneID 66380)", "reagent no.": 1, "GFP, % of control": 50, "viability (ATP), % of control": 70, "activity call": "inactive"}
{"target": "Krtap3-3 (GeneID 66380)", "reagent no.": 2, "GFP, % of control": 43.1, "viability (ATP), % of control": 44.4, "activity call": "inactive"}
{"target": "Krtap3-3 (GeneID 66380)", "reagent no.": 3, "GFP, % of control": 61, "viability (ATP), % of control": 61.5, "activity call": "inactive"}
{"target": "Emc7 (GeneID 73024)", "reagent no.": 1, "GFP, % of control": 72.8, "viability (ATP), % of control": 85.8, "activity call": "inactive"}
{"target": "Emc7 (GeneID 73024)", "reagent no.": 2, "GFP, % of control": 96.2, "viability (ATP), % of control": 108, "activity call": "inactive"}
{"target": "Emc7 (GeneID 73024)", "reagent no.": 3, "GFP, % of control": 87.6, "viability (ATP), % of control": 93.1, "activity call": "inactive"}
{"target": "Fut7 (GeneID 14347)", "reagent no.": 1, "GFP, % of control": 89.6, "viability (ATP), % of control": 96.1, "activity call": "inactive"}
{"target": "Fut7 (GeneID 14347)", "reagent no.": 2, "GFP, % of control": 105, "viability (ATP), % of control": 132, "activity call": "inactive"}
{"target": "Fut7 (GeneID 14347)", "reagent no.": 3, "GFP, % of control": 99.2, "viability (ATP), % of control": 128, "activity call": "inactive"}
{"target": "Erlin1 (GeneID 226144)", "reagent no.": 1, "GFP, % of control": 64.4, "viability (ATP), % of control": 66, "activity call": "inactive"}
{"target": "Erlin1 (GeneID 226144)", "reagent no.": 2, "GFP, % of control": 68.8, "viability (ATP), % of control": 69.5, "activity call": "inactive"}
{"target": "Erlin1 (GeneID 226144)", "reagent no.": 3, "GFP, % of control": 94.8, "viability (ATP), % of control": 82, "activity call": "inactive"}
{"target": "1700024B05Rik (GeneID 100503856)", "reagent no.": 1, "GFP, % of control": 71.5, "viability (ATP), % of control": 66.6, "activity call": "inactive"}
{"target": "1700024B05Rik (GeneID 100503856)", "reagent no.": 2, "GFP, % of control": 105, "viability (ATP), % of control": 51.4, "activity call": "inactive"}
{"target": "1700024B05Rik (GeneID 100503856)", "reagent no.": 3, "GFP, % of control": 82.4, "viability (ATP), % of control": 90.7, "activity call": "inactive"}

An excerpt of the results above, for reference:
{"target": "N4bp2 (GeneID 333789)", "reagent no.": 1, "GFP, % of control": 61.5, "viability (ATP), % of control": 60.2, "activity call": "inactive"}
{"target": "N4bp2 (GeneID 333789)", "reagent no.": 2, "GFP, % of control": 95.2, "viability (ATP), % of control": 85.6, "activity call": "inactive"}
{"target": "N4bp2 (GeneID 333789)", "reagent no.": 3, "GFP, % of control": 74.1, "viability (ATP), % of control": 55.4, "activity call": "inactive"}
